{
  "source": "PubChem BioAssay AID504467",
  "about": "(National Center for Advancing Translational Sciences (NCATS), 2011)",
  "note": "Among all 330,000 compounds or so, about 7,700 (2.3%) were called active. Inconclusive means that the source gave no clear call. Such entries were picked first, then a sample of the others. Calls come from the whole dose curve; as a rule, active = well fitted inhibition curve with a large enough effect; inconclusive = small, poorly fitted or top-dose-only effect, or effect the other way; inactive = flat fitted curve, though single readings scatter. Potencies beside an inconclusive call are fits to weak or partial responses and may not hold up. Potency is the fitted concentration of half-maximal effect.",
  "data": [
    {"assay": "qHTS screen for small molecules that inhibit ELG1-dependent DNA repair in human embryonic kidney (HEK293T) cells expressing luciferase-tagged ELG1; note: nearly all actives have a fitted effect of over 55% in size", "conditions": "HEK293T ELG1-luciferase reporter, luminescence, 16 h, DNA damage induced by 5-fluorouridine; series mostly up to 46.1 µM", "in_short": "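Quantitative HTS, concentration-response format. 2,000 cells/well co-treated with 5-fluorouridine and compound, 16 hr in 5% CO2 at 37 °C; ONE-Glo luminescence read after 30 min.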", "values": [
      {"smiles": "Cc1cc(=O)[nH]c(N/N=C/c2ccc(F)cc2)n1", "Potency": "inconclusive: 16.4 µM [activator, partial curve]"},
      {"smiles": "CCCCCCCNC(=O)C1(CC2CC(c3cccc(Br)c3)=NO2)CCN(C(=O)C2CCCC2)CC1", "note": "(stereo not given)", "Potency": "inconclusive: 6.31 µM [inhibitor, single point]"},
      {"smiles": "O=C(Nc1ccc(N2CCN(C(=O)c3ccc(Cl)cc3)CC2)cc1)c1ccc([N+](=O)[O-])o1", "Potency": "inconclusive: 25.9 µM [inhibitor, single point]"},
      {"smiles": "CCOC(=O)C1=C(C)N(C[C@@H]2CC[C@@H](Cc3ccc4cc(OC)ccc4c3)O2)C(=O)NC1c1ccccc1", "note": "(stereo not given in full)", "Potency": "inconclusive: 25.9 µM [inhibitor, partial curve]"},
      {"smiles": "COc1ccc(-c2nnn(CC(=O)N(Cc3ccco3)C(C(=O)NCC3CCCO3)c3ccco3)n2)cc1", "note": "(stereo not given)", "Potency": "inactive"},
      {"smiles": "O=C(NCc1ccccc1)C1=C[C@@H](c2ccc(C(F)(F)F)cc2)C[C@@H](OCc2ccc(CO)cc2)O1", "Potency": "inconclusive: 23.1 µM [inhibitor, single point]"},
      {"smiles": "CC1(C)Oc2ccc(C(=O)N/N=C/c3ccc(O)cc3)cc2NC1=O", "Potency": "inactive"},
      {"smiles": "Cc1ccccc1Cn1c(=O)n(-c2ccccc2)c(=O)c2ccc(C(=O)NCc3ccco3)cc21", "Potency": "inconclusive: 8.2 µM [activator, partial curve, poor fit]"},
      {"smiles": "Cc1ccc(C)c(NS(=O)(=O)c2ccc3c(c2)NC(=O)CO3)c1", "Potency": "inactive"},
      {"smiles": "Cc1ccc(NP(=O)(c2ccc(N(C)C)cc2NC(=O)c2cccs2)N2CCOCC2)cc1", "note": "(stereo not given)", "Potency": "inconclusive: 32.6 µM [inhibitor, single point]"},
      {"smiles": "O=C(Nc1nc(-c2ccncc2)cs1)C1COc2ccccc2O1", "note": "(stereo not given)", "Potency": "inconclusive: 20.6 µM [inhibitor, single point]"},
      {"smiles": "CCCC(NC(=O)c1ccccc1)c1nc2ccccc2n1Cc1ccc(C(=O)OC)o1", "note": "(stereo not given)", "Potency": "inconclusive: 23.1 µM [inhibitor, single point]"},
      {"smiles": "O=S(=O)(c1ccc(NC(=S)Nc2ccccc2)cc1)N1CCOCC1", "Potency": "inactive"},
      {"smiles": "CN1C(=O)/C(=C\\c2cc(Br)cs2)c2ccccc21", "Potency": "inconclusive: 29.1 µM [activator, single point]"},
      {"smiles": "COc1cc2ccccc2cc1C(=O)Nc1ccc(N2CCN(C)CC2)cc1", "Potency": "inconclusive: 14.6 µM [activator, partial curve]"},
      {"smiles": "CC(C)OC(=O)CC(=O)CSc1nc2c(cc1C#N)CCCCCC2", "Potency": "inconclusive: 32.6 µM [activator, partial curve, poor fit]"},
      {"smiles": "CC[C@H](C)[C@@H](C(=O)NCCCCCCCCCCC(=O)N1CCN(C(=O)OC(C)(C)C)CC1)n1cc(CCCCCNC(=O)OC(C)(C)C)nn1", "Potency": "inconclusive: 3.16 µM [inhibitor, partial curve, poor fit]"},
      {"smiles": "O=C(COC(=O)/C=C/c1ccccc1[N+](=O)[O-])Nc1ccc(OCc2ccccc2)cc1", "Potency": "inconclusive: 20.6 µM [activator, partial curve]"},
      {"smiles": "Cc1onc(-c2c(Cl)cccc2Cl)c1C(=O)N1CCc2ccccc21", "Potency": "inconclusive: 0.206 µM [activator, single point]"},
      {"smiles": "CCCNS(=O)(=O)c1ccc(OCC(=O)NCCC2=CCCCC2)cc1", "Potency": "inconclusive: 13 µM [inhibitor, partial curve, poor fit]"},
      {"smiles": "COc1ccc(-c2cc3ccc(OCc4nn[nH]n4)cc3oc2=O)cc1OC", "Potency": "inactive"},
      {"smiles": "CCOC(=O)c1nc(C)n(-c2cc(Cl)ccc2Cl)n1", "Potency": "inactive"},
      {"smiles": "O=S(=O)(NCCc1csc(-c2cccnc2)n1)c1ccc(Cl)s1", "Potency": "inconclusive: 16.4 µM [inhibitor, partial curve]"},
      {"smiles": "O=C(CN1CCN(c2ccccn2)CC1)N1CCc2ccccc21", "Potency": "inactive"},
      {"smiles": "COc1ccc(S(=O)(=O)N2CCCCCC2)cc1C(=O)N(C)CCOc1ccc(Cl)cc1", "Potency": "inconclusive: 10.3 µM [inhibitor, partial curve]"},
      {"smiles": "O=C(O)CN1C(=O)/C(=C\\c2cc([N+](=O)[O-])ccc2OCc2ccccc2Cl)SC1=S", "Potency": "inconclusive: 14.6 µM [inhibitor, partial curve]"},
      {"smiles": "O=C(N/N=C/c1ccc[nH]1)c1ccc([N+](=O)[O-])cc1", "Potency": "inconclusive: 5.17 µM [activator, partial curve, poor fit]"},
      {"smiles": "Cc1ccc2cc(CN(CC3CCCO3)S(=O)(=O)c3cccc4nsnc34)c(=O)[nH]c2c1", "note": "(stereo not given)", "Potency": "inconclusive: 25.1 µM [inhibitor, single point]"},
      {"smiles": "Cn1c(=O)c2c(nc(N3CCc4ccccc4C3)n2Cc2ccccc2F)n(C)c1=O", "Potency": "inconclusive: 29.1 µM [inhibitor, single point]"},
      {"smiles": "COc1ccccc1CNC(=O)CSc1nc(N)c(C#N)c(-c2cccs2)c1C#N", "Potency": "inconclusive: 16.4 µM [inhibitor, single point]"},
      {"smiles": "O=C(Nc1ccc(Cl)cc1Cl)c1n[nH]c(Cn2cncn2)n1", "Potency": "inconclusive: 16.4 µM [activator, single point]"},
      {"smiles": "Cc1cc(/C(N)=N/OC(=O)c2ccc(Cl)cc2)no1", "Potency": "inconclusive: 23.1 µM [activator, partial curve]"},
      {"smiles": "COc1ccc(-c2ccc(-c3nc4c(c(=O)[nH]c(=O)n4Cc4ccccc4)n3C)o2)c([N+](=O)[O-])c1", "Potency": "active: 5.8 µM"},
      {"smiles": "O=C(CSc1ncccn1)Nc1ccccc1", "Potency": "inconclusive: 20.6 µM [activator, single point]"},
      {"smiles": "COc1ccc(OC)c(Nc2nc(NCCO)c3ccccc3n2)c1", "Potency": "inconclusive: 23.1 µM [inhibitor, single point]"},
      {"smiles": "O=C(Nc1cccc(C(F)(F)F)c1)c1ccc2nc(-c3ccco3)c(-c3ccco3)nc2c1", "Potency": "active: 20.6 µM"},
      {"smiles": "CC1=CC(C)(C)N(C(=O)c2ccccc2)c2ccc(C)cc21", "Potency": "inactive"},
      {"smiles": "O=C(NCCc1ccc(F)cc1)c1ccc([N+](=O)[O-])cc1", "Potency": "inconclusive: 16.4 µM [activator, partial curve]"},
      {"smiles": "CC(=O)NCc1ccc(S(=O)(=O)N/N=C/c2ccc(Br)cc2)cc1", "Potency": "inconclusive: 20.6 µM [activator, partial curve, poor fit]"},
      {"smiles": "Cc1ccc(CNC(=O)c2cccc3c2C(=O)c2ccc(N4CCC(C)CC4)cc2S3(=O)=O)cc1", "Potency": "inconclusive: 14.6 µM [inhibitor, single point]"},
      {"smiles": "COc1cc(Cl)ccc1NC(=O)COc1ccccc1C(=O)NN", "Potency": "inconclusive: 29.1 µM [inhibitor, partial curve, poor fit]"},
      {"smiles": "Cc1ccc(NC(=O)C/C(N)=N/OC(=O)Nc2ccc(C)c(Cl)c2)cc1", "Potency": "inconclusive: 16.4 µM [activator, partial curve, poor fit]"},
      {"smiles": "CNc1nnc(-c2ccc(C)cc2)c2ccccc12", "Potency": "inactive"},
      {"smiles": "COc1cccc(C(=O)N(C)CC(=O)Nc2ccc(F)c(F)c2F)c1", "Potency": "inactive"},
      {"smiles": "O=C(COc1cccc2cccnc12)NNC(=S)Nc1ccccc1", "Potency": "inactive"},
      {"smiles": "Cc1nc2cc3ccccc3cc2c(=O)[nH]1", "Potency": "inconclusive: 16.4 µM [activator, partial curve]"},
      {"smiles": "Cc1ccc(-n2nc3cc(C)c(NC(=O)c4cccnc4)cc3n2)cc1", "Potency": "inconclusive: 14.6 µM [activator, partial curve]"},
      {"smiles": "CCOC(=O)C1(Cc2cccc(OC)c2)CCN(C(C)CC(C)(C)O)CC1", "note": "(stereo not given)", "Potency": "inconclusive: 29.1 µM [inhibitor, single point]"},
      {"smiles": "Cc1coc2cc3oc(=O)c(CCC(=O)N4CCC(C(=O)O)(c5ccccc5)CC4)c(C)c3cc12", "Potency": "inactive"},
      {"smiles": "COC(=O)c1ccc(NC(=O)CN(c2ccc(OC)cc2)S(C)(=O)=O)cc1", "Potency": "inconclusive: 20.6 µM [activator, partial curve]"},
      {"smiles": "O=C(c1ccc2c(c1)OCO2)n1nnc2ccccc21", "Potency": "inactive"},
      {"smiles": "COc1cccc(/C=N/Nc2nn3cnnc3c3ccccc23)c1", "Potency": "inconclusive: 20.6 µM [inhibitor, single point]"},
      {"smiles": "O=C(/C=C/c1ccco1)Nc1ccccn1", "Potency": "inconclusive: 3.26 µM [activator, partial curve]"},
      {"smiles": "Cc1cc2ccccc2n1CCNC(=O)c1cccs1", "Potency": "inconclusive: 4.11 µM [activator, partial curve]"},
      {"smiles": "C=C(C)COc1ccc(-c2[nH]ncc2-c2ccc(OC)c(OC)c2)c(O)c1", "Potency": "active: 20.6 µM"},
      {"smiles": "Cc1cccc(C)c1N1CCN(S(=O)(=O)c2ccc(F)cc2)CC1", "Potency": "inactive"},
      {"smiles": "CCOC(=O)c1sc(NC(=O)CCN2C(=O)c3ccccc3C2=O)c(C(=O)OCC)c1C", "Potency": "inconclusive: 8.2 µM [inhibitor, partial curve, poor fit]"},
      {"smiles": "CC(=O)Oc1ccccc1C1=NN(C(=O)/C=C/c2ccccc2)C(c2ccccc2)C1", "note": "(stereo not given)", "Potency": "inactive"},
      {"smiles": "COc1ccc(-c2csc(Nc3cccc(C)n3)n2)cc1", "Potency": "inconclusive: 1.58 µM [activator, full curve, poor fit]"},
      {"smiles": "O=C(O)c1cc2c(cc1NC(=O)c1ccccc1OC(F)F)OCCCO2", "Potency": "inconclusive: 4.61 µM [activator, full curve]"},
      {"smiles": "Cc1nc2nc(SCC(=O)NCCCN3CCCC3)nn2c(C)c1Cc1ccccc1Cl", "Potency": "inconclusive: 13 µM [activator, partial curve, poor fit]"},
      {"smiles": "Cc1cccc(NC(=O)COc2ccc(Br)cc2)n1", "Potency": "inconclusive: 13 µM [activator, partial curve]"},
      {"smiles": "CCOc1ccccc1N(CC(=O)Nc1ccccc1F)S(=O)(=O)c1ccccc1", "Potency": "inactive"},
      {"smiles": "O=S(=O)(c1ccc(-c2nc3ccccc3s2)cc1)N1CCCC1", "Potency": "inconclusive: 2.31 µM [activator, full curve]"},
      {"smiles": "Cc1ccc(Oc2cc([N+](=O)[O-])cc3c2C(=O)Nc2ccccc2O3)cc1", "Potency": "inconclusive: 11.6 µM [inhibitor, partial curve, poor fit]"}
    ]}
  ]
}
